{"source": "patent US20190127692A1", "about": "“Production Method For Hepatocyte Lineage Cells, Hepatocyte Lineage Cell Or Culture Product Obtained By The Production Method, And Hepatocyte Differentiation-Inducing Medium” (National University Corporation Chiba University, priority 2017, published 2019)", "system": "201B7 cells", "experiment": "MTS assay, cell proliferation in HSM supplemented with lactic acid (Example 2)", "type": "cell-based, human", "conditions": "added to HSM, 3 days culture", "note": "For at least one compound, name, drawing or mass did not settle the structure."}
{"smiles": "CC(O)C(=O)[O-].[Na+]", "note": "(stereo not shown) [sodium lactate]", "values": [{"measurement": "concentration range with cell proliferation effect as compared to HSM alone", "value": "3 to 30000", "unit": "µM"}]}
